Assay [1] addresses E-cadherin, wild type, as the Dimerization Activated TurboID pair (WT-DAT: EcadN and EcadC) (UniProt F1PAA9). The assay can be described thus: split reporter.
For assay [2] the target is unchanged. The assay can be described thus: split reporter. This is another data set of the same source.

The chains behind the UniProt entries cited, without tags or fusion partners. Residues count along the entry.
UniProt F1PAA9, residues 157-885: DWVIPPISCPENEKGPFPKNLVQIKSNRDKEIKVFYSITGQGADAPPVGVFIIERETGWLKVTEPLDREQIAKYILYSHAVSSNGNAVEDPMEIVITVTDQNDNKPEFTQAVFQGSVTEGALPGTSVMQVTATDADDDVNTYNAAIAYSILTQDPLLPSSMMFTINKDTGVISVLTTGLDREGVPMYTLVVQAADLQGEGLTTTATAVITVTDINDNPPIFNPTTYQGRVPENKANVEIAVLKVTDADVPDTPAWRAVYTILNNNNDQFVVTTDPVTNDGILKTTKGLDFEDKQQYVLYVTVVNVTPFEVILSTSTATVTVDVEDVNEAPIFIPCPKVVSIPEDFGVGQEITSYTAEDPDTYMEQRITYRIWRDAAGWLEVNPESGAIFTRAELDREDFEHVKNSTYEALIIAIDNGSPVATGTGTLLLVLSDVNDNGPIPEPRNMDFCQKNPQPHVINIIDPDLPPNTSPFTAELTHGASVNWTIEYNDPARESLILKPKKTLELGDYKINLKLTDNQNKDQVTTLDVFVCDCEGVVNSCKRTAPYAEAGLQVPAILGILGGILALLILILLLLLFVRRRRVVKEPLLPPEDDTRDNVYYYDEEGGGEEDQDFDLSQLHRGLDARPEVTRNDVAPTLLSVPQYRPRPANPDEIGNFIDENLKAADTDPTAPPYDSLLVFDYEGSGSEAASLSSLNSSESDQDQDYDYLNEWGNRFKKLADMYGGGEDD

Like-named read-outs stand apart in the source and are kept apart here. No constants are given. Whether binding was seen depends on the method and setting. In cells and extracts the contact can be indirect. Some entries that bind do so weakly or less than the wild type.

For “E-cadherin, wild type, as the Dimerization Activated TurboID pair (WT-DAT: EcadN and EcadC) (from UniProt F1PAA9) (receptor)”, the binding entry in assay [1] and in assay [2] was “binds” in each case.

Source of the values: doi:10.1101/2025.11.07.687288.
